Measured values from the supplement of paper PMC12067093, “Discovery and optimisation of a covalent ligand for TRIM25 and its application to targeted protein ubiquitination” (Chemical Science, 2025).
The other results are listed elsewhere or left out.

Target: T1, FBXW4_P57775_167_RPLGVFAGHDEDVCHFVLANSHIVSAGGDGK (UniProt P57775)
T1 sequence (whole entry): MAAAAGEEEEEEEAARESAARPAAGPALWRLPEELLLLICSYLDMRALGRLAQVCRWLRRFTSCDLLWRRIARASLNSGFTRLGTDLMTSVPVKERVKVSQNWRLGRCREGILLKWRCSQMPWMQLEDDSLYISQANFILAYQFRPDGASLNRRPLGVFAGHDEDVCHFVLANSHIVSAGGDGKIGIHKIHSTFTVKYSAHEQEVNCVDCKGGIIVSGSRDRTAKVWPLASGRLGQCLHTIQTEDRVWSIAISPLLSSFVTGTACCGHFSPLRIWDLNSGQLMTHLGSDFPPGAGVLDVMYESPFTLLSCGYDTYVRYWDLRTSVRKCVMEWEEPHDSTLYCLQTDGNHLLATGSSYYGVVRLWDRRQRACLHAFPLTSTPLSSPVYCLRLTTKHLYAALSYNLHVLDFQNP
Assay: probe-labelled cysteine peptide fold change vs DMSO (competition) (log2 fold change); higher = less target engagement (more negative = stronger competition)
Conditions: THP-1, incubation time: 4 h
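Note: competitive chemoproteomic profiling in live THP-1 cells with an iodoacetamide desthiobiotin (IA-DTB) probe, comparing probe-labelled peptide intensities in compound-treated cells against DMSO-treated controls.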

Structure (SMILES): CC1Cc2ccccc2N1C(=O)C1CCCN(C(=O)CCl)C1 (mixture of isomers) [TRIM25 ligand 11 (diastereomer mixture)]
- probe-labelled cysteine peptide fold change (10 µM): 0.16
- probe-labelled cysteine peptide fold change (50 µM): 0.0559
